Source: PMC9294231, “gC1qR/C1qBP/HABP-1: Structural Analysis of the Trimeric Core Region, Interactions With a Novel Panel of Monoclonal Antibodies, and Their Influence on Binding to FXII” (Frontiers in Immunology, 2022)
No constants are given. Whether binding was seen depends on the method and setting. Some results given as binding are weak or reduced against the parent protein; the word gives no strength.

Amino acid sequences for entries named in this document (tags omitted). Residues count along the entry.
UniProt Q07021, residues 74-282: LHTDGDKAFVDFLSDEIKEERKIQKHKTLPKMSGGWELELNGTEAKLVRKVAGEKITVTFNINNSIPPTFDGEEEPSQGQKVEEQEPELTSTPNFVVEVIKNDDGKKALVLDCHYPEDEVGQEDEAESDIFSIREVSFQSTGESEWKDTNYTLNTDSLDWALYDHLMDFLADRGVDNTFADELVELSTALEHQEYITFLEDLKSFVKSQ

Molecular target: gC1qR-avi, enzymatically biotinylated (human) (UniProt Q07021)
Assay: SPR; competition: biotinylated gC1qR-avi captured to ~100 RU or ~1000 RU on an SA chip, one flow cell presaturated with 100 nM anti-gC1qR mAb, control flow cells not; FXII, FXIIa or FXII-FNII injected; 25°C, HBS-T with 50 µM ZnCl2; both purified

binding: binds
B1: type-II fibronectin domain of human Factor XII/XIIa (FXII-FNII) (domain or fragment, UniProt P00748 20-90)
chain: IPPWEAPKEHKYKAEEHTVVLTVTGEPCHFPFQYHRQLYHKCTHKGRPGPQPWCATTPNFDQDQRWGYCLE
